These are yes or no findings as the source states them, for the method shown.
Key:
[1] = biological target: T1, Chimera #10 (Homo sapiens (Human)) (UniProt P49961); experiment: FACS on CHO cells; Chimera 2 with human E153 ([..])
T1 sequence: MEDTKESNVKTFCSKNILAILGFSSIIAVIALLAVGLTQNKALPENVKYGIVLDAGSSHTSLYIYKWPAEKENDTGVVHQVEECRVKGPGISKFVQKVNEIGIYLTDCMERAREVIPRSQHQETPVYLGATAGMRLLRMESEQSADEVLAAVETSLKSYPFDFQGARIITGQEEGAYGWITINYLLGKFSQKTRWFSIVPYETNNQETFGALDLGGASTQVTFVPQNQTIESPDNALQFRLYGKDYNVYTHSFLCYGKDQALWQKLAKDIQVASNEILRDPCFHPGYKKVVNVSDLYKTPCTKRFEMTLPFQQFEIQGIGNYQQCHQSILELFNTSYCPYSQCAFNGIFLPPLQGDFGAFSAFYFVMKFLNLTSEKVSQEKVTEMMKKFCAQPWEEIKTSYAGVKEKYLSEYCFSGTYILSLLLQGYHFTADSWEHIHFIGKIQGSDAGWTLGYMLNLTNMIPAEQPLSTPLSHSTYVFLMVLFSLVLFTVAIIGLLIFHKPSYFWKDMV

[2] = biological target: T2, Chimera #9 (Homo sapiens (Human)) (UniProt P49961); experiment: FACS dot plot, CHO cells, row 'Chimera 2/A150D'
T2 sequence: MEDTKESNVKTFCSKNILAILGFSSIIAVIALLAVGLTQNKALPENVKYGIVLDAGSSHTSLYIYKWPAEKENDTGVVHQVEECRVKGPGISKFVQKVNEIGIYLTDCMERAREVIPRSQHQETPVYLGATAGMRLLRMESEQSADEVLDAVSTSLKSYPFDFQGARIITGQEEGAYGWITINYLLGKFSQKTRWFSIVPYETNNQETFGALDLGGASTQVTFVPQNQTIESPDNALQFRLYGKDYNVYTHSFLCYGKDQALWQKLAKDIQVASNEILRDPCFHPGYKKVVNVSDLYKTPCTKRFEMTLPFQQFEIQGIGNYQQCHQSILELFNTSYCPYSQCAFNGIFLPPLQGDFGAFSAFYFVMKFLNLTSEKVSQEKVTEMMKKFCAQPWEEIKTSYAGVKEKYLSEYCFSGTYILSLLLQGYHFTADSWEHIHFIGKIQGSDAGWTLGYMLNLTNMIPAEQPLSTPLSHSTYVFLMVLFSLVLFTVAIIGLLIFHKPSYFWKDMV

[3] = biological target: T3, Chimera #14 (Homo sapiens (Human)) (UniProt P49961); experiment: FACS on CHO cells; human CD39 with mouse S153 and T154
T3 sequence: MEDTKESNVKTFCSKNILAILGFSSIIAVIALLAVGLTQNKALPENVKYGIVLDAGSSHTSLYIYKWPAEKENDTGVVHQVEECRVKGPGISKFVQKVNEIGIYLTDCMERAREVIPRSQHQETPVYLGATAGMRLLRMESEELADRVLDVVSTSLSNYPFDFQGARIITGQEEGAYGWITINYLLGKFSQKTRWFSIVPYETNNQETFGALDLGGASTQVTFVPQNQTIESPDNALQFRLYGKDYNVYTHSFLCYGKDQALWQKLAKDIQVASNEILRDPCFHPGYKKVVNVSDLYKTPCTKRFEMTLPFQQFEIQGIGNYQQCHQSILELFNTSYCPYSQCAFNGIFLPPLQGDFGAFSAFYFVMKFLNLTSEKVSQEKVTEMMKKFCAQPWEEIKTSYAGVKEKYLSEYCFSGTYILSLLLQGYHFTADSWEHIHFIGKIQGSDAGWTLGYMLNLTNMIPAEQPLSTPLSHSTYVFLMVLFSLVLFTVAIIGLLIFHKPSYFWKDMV

[4] = biological target: T1, Chimera #10 (Homo sapiens (Human)); experiment: FACS dot plot, CHO cells, row 'Chimera 2/S153E'
[5] = biological target: T3, Chimera #14 (Homo sapiens (Human)); experiment: FACS on CHO cells expressing the chimera
[6] = biological target: T4, Chimera #13 (Homo sapiens (Human)) (UniProt P49961); experiment: FACS on CHO cells expressing the chimera
T4 sequence: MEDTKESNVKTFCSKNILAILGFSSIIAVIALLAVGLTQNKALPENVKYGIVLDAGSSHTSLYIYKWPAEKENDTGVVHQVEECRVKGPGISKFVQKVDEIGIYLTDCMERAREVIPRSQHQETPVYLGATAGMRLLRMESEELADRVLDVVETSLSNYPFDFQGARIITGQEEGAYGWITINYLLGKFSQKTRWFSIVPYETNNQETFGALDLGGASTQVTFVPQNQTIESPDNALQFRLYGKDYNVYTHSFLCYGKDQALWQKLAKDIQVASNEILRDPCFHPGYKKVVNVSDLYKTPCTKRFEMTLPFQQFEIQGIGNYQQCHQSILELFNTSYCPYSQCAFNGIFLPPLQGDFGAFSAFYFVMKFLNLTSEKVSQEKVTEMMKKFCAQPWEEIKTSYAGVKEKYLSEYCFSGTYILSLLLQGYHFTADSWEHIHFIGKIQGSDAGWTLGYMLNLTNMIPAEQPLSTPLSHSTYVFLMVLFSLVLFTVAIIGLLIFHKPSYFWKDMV

[7] = biological target: T2, Chimera #9 (Homo sapiens (Human)); experiment: FACS on CHO cells expressing the chimera
[8] = biological target: T1, Chimera #10 (Homo sapiens (Human)); experiment: FACS on CHO cells expressing the chimera
[9] = biological target: Chimera #2 (human) (UniProt P49961); experiment: FACS on CHO cells expressing the chimera
[10] = biological target: Chimera #2 (human) (UniProt P49961); experiment: FACS dot plot, CHO cells, row 'Chimera 2'
[11] = biological target: T2, Chimera #9 (Homo sapiens (Human)); experiment: FACS on CHO cells; Chimera 2 with human D150 ([..])
[12] = biological target: Chimera #2 (human) (UniProt P49961); experiment: FACS on CHO cells; human M1-E142 + mouse Q143-S158 (…) + human Y159-V510
[13] = biological target: T4, Chimera #13 (Homo sapiens (Human)); experiment: FACS on CHO cells; human CD39 with mouse D99 and T154

binding [1]: no binding (tested: 15 ug/ml)
binding [2]: no binding (tested: 15 ug/ml)
binding [3]: no binding (tested: 15 ug/ml)
binding [4]: no binding (tested: 15 ug/ml)
binding [5]: no binding (tested: 15 µg/ml)
binding [6]: no binding (tested: 15 µg/ml)
binding [7]: no binding (tested: 15 µg/ml)
binding [8]: no binding (tested: 15 µg/ml)
binding [9]: no binding (tested: 15 µg/ml)
binding [10]: no binding (tested: 15 ug/ml)
binding [11]: no binding (tested: 15 ug/ml)
binding [12]: no binding (tested: 15 ug/ml)
binding [13]: no binding (tested: 15 ug/ml)
B1: 31873 (antibody, human IgG4 S228P, kappa, V domains shown)
VH: QVQLVQSGAEVKKPGSSVKVSCKASGGTFSKYGISWVRQAPGQGLEWMGSIIPEFGIANYAQKFQGRVTITADESTSTAYMELSSLRSEDTAVYYCARESGGYRDHRLGVWGQGTMVTVSS
VL: EIVMTQSPATLSVSPGERATLSCRASQSVGSNLAWYQQKPGQAPRLLIYGASTRASGIPARFSGSGSGTEFTLTISSLQSEDFAVYYCQQYLLWPLTFGGGTKVEIKR
